# Structures can show the parent of a compound that is named as a salt. This is one part of the list. This data set is noisy: repeats of one test often differ as much as different tests do.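 JEG3 cells stably express tetracycline-inducible wild-type human LRH-1, a highly sumoylated nuclear receptor. SUMO-sensitive transcripts APOC3 and MUC1, increased by SUMO-deficient LRH-1 or UBC9 knockdown, were quantified by RT-qPCR relative to TBP and DMSO controls. Primary hits had robust Z-scores above +2 or below -2, before toxicity and TBP filtering.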
# Tested on: JEG3 expressing hLRH-1
# Assay: MUC1 transcript change (ddCt vs TBP and DMSO), Z-score over library; higher = higher MUC1 expression
# Conditions: 10 µM; time (hr): 24
row,Compound,MUC1 transcript change (Z-score)
1,Fc1ccc(C(c2ccc(F)cc2)N2CCN(C/C=C/c3ccccc3)CC2)cc1 [Flunarizine dihydrochloride],0.85
2,C[C@H](N)[C@H](O)c1cccc(O)c1 [metaraminol bitartrate],-0.831
3,CC(=O)OCC(=O)[C@@]1(O)CCC2C3CCC4=CC(=O)C=CC4(C)C3[C@@H](O)C[C@@]21C (some centres undefined) [prednisolone acetate],-0.759
4,COc1ccc(OC)c(C(O)CNC(=O)CN)c1 (centres undefined) [midodrine hydrochloride],0.557
5,CC1(C)S[C@@H]2[C@H](NC(=O)C(C(=O)O)c3ccccc3)C(=O)N2[C@H]1C(=O)O (some centres undefined) [carbenicillin disodium],1.13
6,OCCN1CCN(CCCN2c3ccccc3Sc3ccc(Cl)cc32)CC1 [perphenazine],1.14
7,N=C(N)N [guanidine carbonate],0.65
8,Cc1ccccc1OCC(O)CO (centres undefined) [mephenesin],-0.522
9,COc1ccc(C[C@H](N)C(=O)N[C@@H]2[C@@H](CO)OC(n3cnc4c(N(C)C)ncnc43)[C@@H]2O)cc1 (some centres undefined) [puromycin hydrochloride],-1.42
10,CN[C@@H]1[C@@H](O)[C@@H](O[C@@H]2[C@@H](O)[C@H](O[C@H]3OC(CN)=CC[C@H]3N)[C@@H](N)C[C@H]2N)OC[C@]1(C)O [sisomicin sulfate],0.664
11,CCC(=O)Oc1ccc2c(c1)CC[C@@H]1[C@@H]2CC[C@]2(C)[C@@H](OC(=O)CC)CC[C@@H]12 [estradiol dipropionate],-0.214
12,CC(C)OC(=O)CCC/C=C\C[C@@H]1[C@@H](/C=C/[C@@H](O)COc2cccc(C(F)(F)F)c2)[C@H](O)C[C@@H]1O [travoprost],-0.566
13,CN(C)CCC=C1c2ccccc2CCc2ccccc21 [Amitriptyline hydrochloride],-0.809
14,CN(C)C(=O)C(CCN1CCC(O)(c2ccc(Cl)cc2)CC1)(c1ccccc1)c1ccccc1 [Loperamide hydrochloride],-0.252
15,CCCCNc1cc(C(=O)O)cc(S(N)(=O)=O)c1Oc1ccccc1 [bumetanide],0.0101
16,CC1(C)O[C@@H]2C[C@H]3[C@@H]4CCC5=CC(=O)C=C[C@]5(C)[C@H]4[C@@H](O)C[C@]3(C)[C@]2(C(=O)CO)O1 [desonide],-1.65
17,CNC(C)[C@@H]1CC[C@@H](N)[C@@H](OC2[C@@H](N)C[C@@H](N)[C@H](OC3OC[C@](C)(O)[C@H](NC)[C@H]3O)[C@H]2O)O1 (some centres undefined) [gentamicin sulfate],-0.567
18,C[C@]12CCC3c4ccc(O)cc4CCC3C1CCC2=O (some centres undefined) [estrone],0.0957
19,COC(=O)Nc1nc2cc(C(=O)c3ccccc3)ccc2[nH]1 [mebendazole],-1.94
20,CCN(CC)C(=S)SSC(=S)N(CC)CC [disulfiram],-0.38
21,Cc1cccc(CN2CCN(C(c3ccccc3)c3ccc(Cl)cc3)CC2)c1 (centres undefined) [meclizine hydrochloride],1.25
22,Nc1c(Br)cc(Br)cc1CNC1CCC(O)CC1 (centres undefined) [ambroxol hydrochloride],0.707
23,CN(C)[C@@H]1C(=O)C(C(N)=O)=C(O)[C@@]2(O)C(=O)C3=C(O)c4c(O)ccc(Cl)c4[C@@H](O)[C@H]3C[C@@H]12 [demeclocycline hydrochloride],-0.105

# A draw from above in order of number of heavy atoms, largest number first.
row,Compound,MUC1 transcript change (Z-score)
17,CNC(C)[C@@H]1CC[C@@H](N)[C@@H](OC2[C@@H](N)C[C@@H](N)[C@H](OC3OC[C@](C)(O)[C@H](NC)[C@H]3O)[C@H]2O)O1 (some centres undefined) [gentamicin sulfate],-0.567
1,Fc1ccc(C(c2ccc(F)cc2)N2CCN(C/C=C/c3ccccc3)CC2)cc1 [Flunarizine dihydrochloride],0.85
5,CC1(C)S[C@@H]2[C@H](NC(=O)C(C(=O)O)c3ccccc3)C(=O)N2[C@H]1C(=O)O (some centres undefined) [carbenicillin disodium],1.13
13,CN(C)CCC=C1c2ccccc2CCc2ccccc21 [Amitriptyline hydrochloride],-0.809

# The listing continues.

row,Compound,MUC1 transcript change (Z-score)
1,C[C@H]1COc2c(N3CCN(C)CC3)c(F)cc3c(=O)c(C(=O)O)cn1c23 [levofloxacin],0.384
2,COC1=CC(=O)C[C@@H](C)[C@]12Oc1c(Cl)c(OC)cc(OC)c1C2=O [griseofulvin],1.2
3,CCOc1nc2cccc(C(=O)O)c2n1Cc1ccc(-c2ccccc2-c2nn[nH]n2)cc1 [candesartan],0.24
4,CCOC(=O)N1CCC(=C2c3ccc(Cl)cc3CCc3cccnc32)CC1 [loratadine],-0.549
5,CC[C@H]1OC(=O)C[C@@H](O)[C@H](C)[C@@H](O[C@@H]2O[C@H](C)[C@@H](O[C@H]3C[C@@](C)(O)[C@@H](O)[C@H](C)O3)[C@H](N(C)C)[C@H]2O)[C@@H](CC=O)C[C@@H](C)C(=O)/C=C/C(C)=C/[C@@H]1CO[C@@H]1O[C@H](C)[C@@H](O)[C@@H](OC)[C@H]1OC [tylosin tartrate],0.555
6,Cn1nnnc1SCC1=C(C(=O)O)N2C(=O)C(NC(=O)C(OC=O)c3ccccc3)C2SC1 (centres undefined) [cefamandole nafate],0.0511
7,CCCCCN(CCCCC)C(=O)C(CCC(=O)O)NC(=O)c1ccc(Cl)c(Cl)c1 (centres undefined) [Lorglumide sodium],0.931
8,CC[C@@H]1C(=O)OC[C@@H]1Cc1cncn1C [(+)-Pilocarpine hydrochloride],0.286
9,CCS(=O)(=O)CCn1c([N+](=O)[O-])cnc1C [tinidazole],0.453
10,COc1ncnc(NS(=O)(=O)c2ccc(N)cc2)c1OC [sulfadoxine],-1.02
11,CC1=C(/C=C/C(C)=C/C=C/C(C)=C/C=C/C=C(C)/C=C/C=C(C)/C=C/C2=C(C)CCCC2(C)C)C(C)(C)CCC1 [beta-carotene],0.596
12,COc1ccc(C(=O)c2ccccc2)c(O)c1 [oxybenzone],-1.17
13,CN1C2CCCC1CC(NC(=O)c1nn(C)c3ccccc13)C2 (centres undefined) [granisetron hydrochloride],0.38
14,CCCC1O[C@@H]2C[C@H]3[C@@H]4CCC5=CC(=O)C=C[C@]5(C)[C@H]4[C@@H](O)C[C@]3(C)[C@]2(C(=O)CO)O1 (some centres undefined) [budesonide],-0.831
15,Clc1ccccc1CN1CCc2sccc2C1 [ticlopidine hydrochloride],0.297
16,CN1C2CC[C@H]1C[C@@H](OC(=O)C(O)c1ccccc1)C2 (some centres undefined) [homatropine bromide],0.627
17,OCC(O)CN1CCN(c2ccccc2)CC1 (centres undefined) [dropropizine],0.332
18,CN(C/C=C/c1ccccc1)Cc1cccc2ccccc12 [naftifine hydrochloride],-0.539
19,CC(COc1ccccc1)N(CCCl)Cc1ccccc1 (centres undefined) [Phenoxybenzamine hydrochloride],-2.55
20,CC(=O)[C@H]1CCC2C3C=CC4=CC(=O)CC[C@@]4(C)C3CC[C@@]21C (some centres undefined) [dydrogesterone],0.0836
21,CN1C(=O)OC(C)(C)C1=O [trimethadione],0.543
22,Oc1ccnc(S)n1 [2-thiouracil],0.0696
23,C[N+](C)(CCOc1ccccc1)Cc1ccccc1 [bephenium hydroxynapthoate],-1.06

row,Compound,MUC1 transcript change (Z-score)
1,COc1cc2ncnc(Nc3ccc(F)c(Cl)c3)c2cc1OCCCN1CCOCC1 [gefitinib],0.317
2,CC(C)NC[C@H](O)COc1cccc2ccccc12 [dexpropranolol hydrochloride],0.479
3,CCC(=O)O[C@H]1[C@H](O[C@@H]2[C@@H](C)[C@H](O[C@H]3C[C@@](C)(OC)[C@@H](O)[C@H](C)O3)[C@@H](C)C(=O)O[C@H](CC)[C@@](C)(O)[C@H](O)[C@@H](C)C(=O)[C@H](C)C[C@@]2(C)O)O[C@H](C)C[C@@H]1N(C)C [erythromycin estolate],0.901
4,Cc1c(OCC(F)(F)F)ccnc1CS(=O)c1nc2ccccc2[nH]1 (centres undefined) [lansoprazole],0.888
5,CCO/C(O)=C1\C(COCCN)=NC(C)=C(C(=O)OC)C1c1ccccc1Cl (centres undefined) [amlodipine besylate],0.368
6,NCCNCCNCCN [trientine hydrochloride],-0.177
7,COc1ccc(C(=O)CC(=O)c2ccc(C(C)(C)C)cc2)cc1 [avobenzone],0.138
8,CC[N+](C)(CC)CCOC(=O)C(O)(c1ccccc1)C1CCCCC1 (centres undefined) [oxyphenonium bromide],-0.0125
9,CC[N+](CC)(CC(=O)Nc1c(C)cccc1C)Cc1ccccc1 [denatonium benzoate],1.03
10,CN1CCc2c(c3ccccc3n2Cc2ccccc2)C1 [mebhydrolin naphthalenesulfonate],0.101
11,CCCCCC(=O)O[C@]1(C(C)=O)CC[C@H]2[C@@H]3CCC4=CC(=O)CC[C@]4(C)[C@H]3CC[C@@]21C [hydroxyprogesterone caproate],-0.253
12,CC12CCC3C(=CCc4cc(O)ccc43)C1CCC2=O (centres undefined) [equilin],0.0588
13,C[C@@H](O)[C@H]1C(=O)N2C(C(=O)O)=C(S[C@@H]3CN[C@H](C(=O)N(C)C)C3)[C@H](C)[C@H]12 [meropenem],1.09
14,CN1C(C(=O)Nc2ccccn2)=C(O)c2ccccc2S1(=O)=O [piroxicam],0.905
15,Cc1cc(C)cc(OCC2CNC(=O)O2)c1 (centres undefined) [metaxalone],0.146
16,CCCCc1nc(Cl)c(CO)n1Cc1ccc(-c2ccccc2-c2nn[nH]n2)cc1 [losartan],0.656
17,C[C@]12C=CC(=O)C=C1CC[C@H]1[C@@H]3C[C@@H](O)[C@](O)(C(=O)CO)[C@@]3(C)C[C@H](O)[C@@]12F [triamcinolone],-1.36
18,Cn1c(=O)c2c(ncn2CC(O)CO)n(C)c1=O (centres undefined) [dyphylline],-0.779
19,C[C@H](N[C@@H](CCc1ccccc1)C(=O)O)C(=O)N1Cc2ccccc2C[C@H]1C(=O)O [quinaprilat],-0.449
20,O=C1C(=O)C([C@H]2CC[C@H](c3ccc(Cl)cc3)CC2)=C(O)c2ccccc21 [atovaquone],0.132
21,CN(C)CCOC(c1ccccc1)c1ccccc1 [Diphenhydramine hydrochloride],-0.924
22,O=C(CCNNC(=O)c1ccncc1)NCc1ccccc1 [Nialamide],0.957
23,C[C@@H]1O[C@@H](OC[C@H]2O[C@@H](Oc3c(-c4ccc(OCCO)c(OCCO)c4)oc4cc(OCCO)cc(O)c4c3=O)[C@H](O)[C@@H](O)[C@@H]2O)[C@H](O)[C@H](O)[C@H]1O [troxerutin],-0.631

# Reference: the supplement of paper PMC4749390
